Assay results taken from patent publication US20230227568A1 (Pieris, published 2023).

Protein sequences, listed by entry. Tags and fused reporters are not part of them.
UniProt A9YYE7, entry or part of it limits assumed: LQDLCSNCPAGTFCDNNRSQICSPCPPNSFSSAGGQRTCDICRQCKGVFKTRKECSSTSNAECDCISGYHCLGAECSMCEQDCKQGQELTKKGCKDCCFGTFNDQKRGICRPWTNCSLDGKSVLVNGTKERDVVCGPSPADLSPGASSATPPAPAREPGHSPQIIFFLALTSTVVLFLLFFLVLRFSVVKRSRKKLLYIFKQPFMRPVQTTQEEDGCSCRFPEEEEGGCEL

Experiments:
hu4-1BB-Fc (R&D Systems) = target: T1, hu4-1BB-Fc (R&D Systems) (human, UniProt Q07011 24-186); test: SPR (Biacore 8K), hu4-1BB-Fc captured by anti-human IgG Fc; apparent value, 1:1 fit
T1 construct: Bought; also called human 4-1BB; not shown: human IgG Fc of the bought fusion
T1 sequence (looked up): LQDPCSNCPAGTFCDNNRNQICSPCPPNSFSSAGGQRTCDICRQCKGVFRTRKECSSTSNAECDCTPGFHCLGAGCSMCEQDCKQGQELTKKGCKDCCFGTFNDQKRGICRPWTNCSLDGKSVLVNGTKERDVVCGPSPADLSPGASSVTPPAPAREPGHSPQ
Experimental: The anti-human IgG Fc antibody (GE Healthcare) was immobilized on a CM5 sensor chip using standard amine chemistry: the carboxyl groups on the chip were activated using 1-ethyl-3-(3-dimethylaminopropyl)-carbodiimide (EDC) and N-hydroxysuccinimide (NHS). Subsequently, anti-human IgG Fc antibody solution (GE Healthcare) at a concentration of 25 μg/mL in 10 mM sodium acetate (pH 5.0) was applied at a flow rate of 5 μL/min until an immobilization level of 4000-10000 resonance units (RU) was achieved. Residual non-reacted NHS-esters were blocked by passing a solution of 1 M ethanolamine across the surface. The reference channel was treated in an analogous manner. Subsequently, hu4-1BB-Fc (R&D Systems) at 0.3 μg/mL was captured by the anti-human IgG-Fc antibody at the chip surface for 180 s at a flow rate of 10 μL/min.
The binding assay was carried out with a contact time of 180 s, a dissociation time of 1200 s or 3000 s and a flow rate of 30 μL/min. All measurements were performed at 25° C. Lipocalin mutein SEQ ID NO: 64 as included in the multimeric proteins was also tested as […]. […] Prior to the protein measurements, three startup cycles were performed for conditioning purposes. Data were evaluated with Biacore Evaluation software. Double referencing was used and the 1:1 binding model was used to fit the raw data.

[1] = target: T2, recombinant hu4-1BB-His (human 4-1BB with a C-terminal polyhistidine tag, R&D Systems) (human, UniProt Q07011 24-186); test: ELISA, hu4-1BB-His coated, detection anti-NGAL-HRP
T2 construct: Bought; not shown: C-terminal polyhistidine tag
T2 sequence (looked up): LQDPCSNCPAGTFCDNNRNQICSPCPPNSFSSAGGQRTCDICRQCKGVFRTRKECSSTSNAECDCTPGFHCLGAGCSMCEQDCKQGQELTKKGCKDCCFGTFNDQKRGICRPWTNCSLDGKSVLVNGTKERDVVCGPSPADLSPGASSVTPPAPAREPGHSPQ
Experimental: Recombinant hu4-1BB-His (human 4-1BB with a C-terminal polyhistidine tag, R&D Systems) at the concentration of 1 μg/mL in PBS was coated overnight on microtiter plates at 4° C. After washing with PBS-0.05% T (PBS supplemented with 0.05% (v/v) Tween 20), the plates were blocked with 2% BSA (w/v) in PBS-0.1% T (PBS supplemented with 0.1% (v/v) Tween 20) for 1 h at room temperature. After washing with 100 μL PBS-0.05% T five times, exemplary multimeric proteins (SEQ ID NOs: 38-44 and 46-53) or 4-1BB-specific lipocalin mutein as included in the multimeric protein (SEQ ID NO: 64) at different concentrations, ranging from 100 to 0.002 nM, were added to the wells and incubated for 1 h at room temperature, followed by another wash step. Bound molecules under study were detected by incubation with 1:1000 diluted anti-NGAL-HRP in PBS-0.1% T-2% BSA. After an additional wash step, fluorogenic HRP substrate (QuantaBlu, Thermo) was added to each well and the fluorescence intensity was detected using a fluorescence microplate reader.
The results of exemplary experiments are depicted in FIG. 2, together with the fit curves resulting from a 1:1 binding sigmoidal fit, where the EC₅₀ value and the maximum signal were free parameters, and the slope was fixed to one. The observed EC₅₀ values toward the hu4-1BB of all tested multimeric proteins were in the sub nanomolar range.

[2] = target: T3, cynomolgus 4-1BB on CHO cells (cynomolgus, UniProt A9YYE7 24-254); test: flow cytometry, Flp-In-CHO::cyno4-1BB cells
T3 construct: also called Flp-In-CHO::cyno4-1BB; cynomolgus 4-1BB-expressing CHO cells
Experimental: (§1) CHO cells were stably transfected with human 4-1BB, cynomolgus 4-1BB, or a mock control using the Flp-In system (Life Technologies) according to the manufacturer's instructions. Transfected CHO cells were maintained in Ham's F12 medium (Life Technologies) supplemented with 10% Fetal Calf Serum (Biochrom) and 500 μg/ml Hygromycin B (Roth). Cells were cultured in cell culture flasks according to manufacturer's instruction (37° C., 5% CO₂ atmosphere).
(§2) 5×10⁴ cells per well were incubated for 1 h in ice-cold PBS containing 5% fetal calf serum (PBS-FCS). A dilution series of the tested multimeric proteins (SEQ ID NOs: 38-44 and 46-55), the 4-1BB-targeting lipocalin mutein as included in the multimeric proteins (SEQ ID NO: 64) or the GPC3-targeting lipocalin SEQ ID NO: 90 were added to the cells and incubated for 1 h on ice. Cells were washed twice with PBS and then incubated with a rabbit anti-NGAL or a goat anti-human IgG labeled with fluorescent dye Alexa 488 for 30 min on ice. Human IgG4 isotype (SEQ ID NOs: 29 and 30) and lipocalin mutein SEQ ID NO: 8 were tested as a negative control. Cells were subsequently washed and analyzed using iQue Flow cytometer (Intellicyte Screener). Mean geometric fluorescent signals were plotted and fitted with Graphpad software using nonlinear regression (shared bottom, four parameters, variable slope).

human 4-1BB on cells = target: T4, human 4-1BB on cells (human, UniProt Q07011 24-255); test: flow cytometry, Flp-In-CHO::hu4-1BB cells
T4 construct: whole, on cells; Stably transfected CHO cells (flow cytometry) and bought Jurkat reporter cells (bioassay); also called Flp-In-CHO::hu4-1BB; human 4-1BB-expressing CHO cells
Experimental: as §1, §2

B1: multimeric protein SEQ ID NO: 46 (designed binder)
chain: QDSTSDLIPAPPLSKVPLQQNFQDNQFHGKWYVVGQAGNIRLREDKDPIKMMATIYELKEDKSYDVTMVKFDDKKCMYDIWTFVPGSQPGEFTLGKIKSFPGHTSSLVRVVSTNYNQHAMVFFKFVFQNREEFYITLYGRTKELTSELKENFIRFSKSLGLPENHIVFPVPIDQCIDGGGGGSGGGGSGGGGSRLKQIEDKLEEILSKLYHIENELARIKKLLGERGGSGGAPEQKLISEEDLGSHHHHHHHHHH
**Q.** With B1 as the binder, how does the Kd (hu4-1BB-Fc (R&D Systems)) read?
**A.** 0.24 nM

**Q.** What about the koff (hu4-1BB-Fc (R&D Systems)) of the same binder?
**A.** 3.18e-05 s⁻¹

**Q.** What about the kon (hu4-1BB-Fc (R&D Systems)) of the same binder?
**A.** 133000 M⁻¹ s⁻¹

**Q.** What about the EC50 [1] of the same binder?
**A.** 0.16 nM

**Q.** And the EC50 [2]?
**A.** 4.46 nM

**Q.** What about the EC50 (human 4-1BB on cells) of the same binder?
**A.** 2.89 nM
